Results taken from the supplement of paper PMC6078165.
± gives the standard deviation of the averaged measurements. Values are relative to the signal before dosing, not to a vehicle control; the signal also falls without drug.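 Fibroblast labels name human fibroblasts: mostly primary ones from tissues such as uterus (C12385, HUF), lung (H6013), bone (Hs27A), adrenal (HADF) and skin (WS1), plus mammary HMF and breast cancer-associated Hs343T. The cancer cells are basal-like or mesenchymal-like triple-negative breast cancer lines. The paper calls a changed response a hit when it shifts by more than 3x the replicate standard deviation. The tissue of the other fibroblasts is not given here.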

System: BT20
Experiment: relative JC-1 red fluorescence (viability) vs pre-drug, coculture with fibroblast (fraction); higher = more viable cancer cells
Experimental: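 JC-1 labelled TNBC cells cocultured 1:1 (1,500 cells each) with CellTrace Violet stained primary or stromal fibroblasts in 384-well plates in FluoroBrite medium, treated with one of 42 anticancer drugs at 0.1, 1, 10 or 100 uM. JC-1 red fluorescence (mitochondrial integrity in cancer cells only) was read by plate reader every 8 h for 72 h. Values are normalised to each well's pre-drug value. The stock of one drug was tenfold lower, so its dose labels may be too high.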

CS(=O)(=O)CCNCc1ccc(-c2ccc3ncnc(Nc4ccc(OCc5cccc(F)c5)c(Cl)c4)c3c2)o1 [Lapatinib]
relative JC-1 red fluorescence
Details | 8 h | 16 h | 24 h | 32 h | 40 h | 48 h | 56 h | 64 h | 72 h
0.1 µM, coculture fibroblast: C12385 | 0.916 ± 0.016 | 0.857 ± 0.021 | 0.787 ± 0.067 | 0.725 ± 0.061 | 0.683 ± 0.084 | 0.661 ± 0.088 | 0.639 ± 0.11 | 0.619 ± 0.12 | 0.608 ± 0.13
0.1 µM, coculture fibroblast: H6013 | 0.896 ± 0.14 | 0.94 ± 0.044 | 0.899 ± 0.063 | 0.913 ± 0.067 | 0.884 ± 0.086 | 0.869 ± 0.092 | 0.854 ± 0.1 | 0.826 ± 0.12 | 0.791 ± 0.14
0.1 µM, coculture fibroblast: H6019 | 0.854 ± 0.033 | 0.804 ± 0.022 | 0.781 ± 0.036 | 0.736 ± 0.046 | 0.703 ± 0.049 | 0.693 ± 0.047 | 0.66 ± 0.036 | 0.633 ± 0.031 | 0.628 ± 0.015
0.1 µM, coculture fibroblast: H6076 | 0.813 ± 0.028 | 0.93 ± 0.031 | 0.8732 ± 0.0069 | 0.8525 ± 0.0056 | 0.816 ± 0.012 | 0.799 ± 0.017 | 0.788 ± 0.038 | 0.79 ± 0.025 | 0.763 ± 0.044
0.1 µM, coculture fibroblast: H6231 | 0.84 ± 0.08 | 0.896 ± 0.12 | 0.88 ± 0.023 | 0.8138 ± 0.004 | 0.74 ± 0.017 | 0.679 ± 0.013 | 0.624 ± 0.041 | 0.595 ± 0.052 | 0.562 ± 0.057
0.1 µM, coculture fibroblast: HADF | 0.822 ± 0.038 | 0.973 ± 0.026 | 0.846 ± 0.02 | 0.863 ± 0.027 | 0.819 ± 0.028 | 0.773 ± 0.028 | 0.746 ± 0.023 | 0.716 ± 0.018 | 0.674 ± 0.018
0.1 µM, coculture fibroblast: HCFa | 0.9474 ± 0.0034 | 0.9199 ± 0.0066 | 0.9318 ± 0.0093 | 0.913 ± 0.018 | 0.904 ± 0.034 | 0.901 ± 0.024 | 0.896 ± 0.026 | 0.881 ± 0.03 | 0.858 ± 0.029
0.1 µM, coculture fibroblast: HCPF | 0.809 ± 0.049 | 0.869 ± 0.14 | 0.918 ± 0.038 | 0.864 ± 0.043 | 0.81 ± 0.048 | 0.755 ± 0.048 | 0.711 ± 0.039 | 0.701 ± 0.033 | 0.662 ± 0.029
0.1 µM, coculture fibroblast: HHSteC | 0.9579 ± 0.0089 | 0.8939 ± 0.0073 | 0.8642 ± 0.0037 | 0.802 ± 0.009 | 0.752 ± 0.031 | 0.717 ± 0.042 | 0.7 ± 0.052 | 0.68 ± 0.061 | 0.651 ± 0.061
0.1 µM, coculture fibroblast: HMF | 0.747 ± 0.019 | 0.938 ± 0.067 | 0.829 ± 0.038 | 0.777 ± 0.025 | 0.7351 ± 0.0031 | 0.692 ± 0.011 | 0.658 ± 0.02 | 0.631 ± 0.019 | 0.602 ± 0.029
0.1 µM, coculture fibroblast: HPFa | 0.97137 ± 0.00033 | 0.955 ± 0.054 | 0.864 ± 0.092 | 0.897 ± 0.044 | 0.882 ± 0.041 | 0.846 ± 0.038 | 0.819 ± 0.042 | 0.795 ± 0.04 | 0.746 ± 0.036
0.1 µM, coculture fibroblast: HUF | 0.95 ± 0.065 | 0.887 ± 0.11 | 0.873 ± 0.16 | 0.822 ± 0.19 | 0.797 ± 0.22 | 0.77 ± 0.24 | 0.773 ± 0.25 | 0.766 ± 0.28 | 0.758 ± 0.29
0.1 µM, coculture fibroblast: Hs5 | 0.802 ± 0.08 | 0.861 ± 0.2 | 0.9318 ± 0.0061 | 0.8871 ± 0.0023 | 0.8487 ± 0.0055 | 0.825 ± 0.011 | 0.801 ± 0.017 | 0.772 ± 0.012 | 0.7423 ± 0.0073
0.1 µM, coculture fibroblast: Hs27A | 0.7665 ± 0.0027 | 0.854 ± 0.051 | 0.91 ± 0.021 | 0.931 ± 0.013 | 0.876 ± 0.013 | 0.856 ± 0.01 | 0.825 ± 0.02 | 0.787 ± 0.023 | 0.738 ± 0.022
0.1 µM, coculture fibroblast: Hs343T | 0.872 ± 0.17 | 0.8928 ± 0.0015 | 0.8131 ± 0.0049 | 0.766 ± 0.014 | 0.72 ± 0.0086 | 0.686 ± 0.0093 | 0.645 ± 0.011 | 0.634 ± 0.0073 | 0.6 ± 0.02
0.1 µM, coculture fibroblast: WS1 | 0.8669 ± 0.0077 | 0.7966 ± 0.0018 | 0.743 ± 0.026 | 0.682 ± 0.036 | 0.631 ± 0.037 | 0.606 ± 0.041 | 0.58 ± 0.054 | 0.554 ± 0.068 | 0.534 ± 0.066
1 µM, coculture fibroblast: C12385 | 0.9384 ± 0.0026 | 0.8459 ± 0.0053 | 0.80444 ± 0.00038 | 0.736 ± 0.0075 | 0.6783 ± 0.003 | 0.6442 ± 0.0012 | 0.618 ± 0.022 | 0.597 ± 0.015 | 0.583 ± 0.014
1 µM, coculture fibroblast: H6013 | 0.949 ± 0.025 | 0.914 ± 0.047 | 0.89 ± 0.049 | 0.847 ± 0.043 | 0.811 ± 0.043 | 0.804 ± 0.029 | 0.796 ± 0.025 | 0.776 ± 0.029 | 0.755 ± 0.026
1 µM, coculture fibroblast: H6019 | 0.9182 ± 0.0028 | 0.902 ± 0.08 | 0.889 ± 0.1 | 0.83 ± 0.12 | 0.781 ± 0.13 | 0.775 ± 0.14 | 0.764 ± 0.16 | 0.746 ± 0.17 | 0.721 ± 0.16
1 µM, coculture fibroblast: H6076 | 0.864 ± 0.15 | 0.9076 ± 0.0061 | 0.828 ± 0.024 | 0.793 ± 0.027 | 0.757 ± 0.041 | 0.734 ± 0.04 | 0.722 ± 0.037 | 0.72 ± 0.053 | 0.701 ± 0.058
1 µM, coculture fibroblast: H6231 | 0.74 ± 0.064 | 0.925 ± 0.018 | 0.842 ± 0.058 | 0.778 ± 0.055 | 0.734 ± 0.052 | 0.687 ± 0.057 | 0.652 ± 0.048 | 0.619 ± 0.046 | 0.587 ± 0.059
1 µM, coculture fibroblast: HADF | 0.94 ± 0.029 | 0.963 ± 0.013 | 0.925 ± 0.011 | 0.906 ± 0.019 | 0.899 ± 0.023 | 0.877 ± 0.046 | 0.873 ± 0.049 | 0.864 ± 0.048 | 0.845 ± 0.053
1 µM, coculture fibroblast: HCFa | 0.974 ± 0.024 | 0.911 ± 0.025 | 0.807 ± 0.053 | 0.75 ± 0.054 | 0.726 ± 0.028 | 0.821 ± 0.16 | 0.691 ± 0.035 | 0.722 ± 0.12 | 0.764 ± 0.24
1 µM, coculture fibroblast: HCPF | 0.74 ± 0.037 | 0.97 ± 0.013 | 0.879 ± 0.014 | 0.816 ± 0.0083 | 0.7607 ± 0.0022 | 0.69 ± 0.0076 | 0.6544 ± 0.0026 | 0.6298 ± 0.0061 | 0.6039 ± 0.0059
1 µM, coculture fibroblast: HHSteC | 0.9135 ± 0.0084 | 0.885 ± 0.012 | 0.9006 ± 0.0071 | 0.826 ± 0.015 | 0.8 ± 0.014 | 0.775 ± 0.019 | 0.761 ± 0.013 | 0.746 ± 0.017 | 0.722 ± 0.024
1 µM, coculture fibroblast: HMF | 0.849 ± 0.093 | 0.894 ± 0.019 | 0.806 ± 0.014 | 0.744 ± 0.022 | 0.703 ± 0.044 | 0.654 ± 0.035 | 0.621 ± 0.051 | 0.603 ± 0.049 | 0.576 ± 0.052
1 µM, coculture fibroblast: HPFa | 0.833 ± 0.12 | 0.812 ± 0.045 | 0.81107 ± 0.00018 | 0.727 ± 0.025 | 0.752 ± 0.056 | 0.726 ± 0.061 | 0.767 ± 0.17 | 0.764 ± 0.22 | 0.659 ± 0.14
1 µM, coculture fibroblast: HUF | 0.945 ± 0.039 | 0.89 ± 0.029 | 0.8515 ± 0.00095 | 0.765 ± 0.013 | 0.724 ± 0.02 | 0.681 ± 0.029 | 0.662 ± 0.041 | 0.649 ± 0.036 | 0.631 ± 0.04
1 µM, coculture fibroblast: Hs5 | 0.837 ± 0.2 | 0.903 ± 0.025 | 0.823 ± 0.029 | 0.771 ± 0.035 | 0.728 ± 0.029 | 0.687 ± 0.0084 | 0.6445 ± 0.0014 | 0.6185 ± 0.0018 | 0.5882 ± 0.0058
1 µM, coculture fibroblast: Hs27A | 0.771 ± 0.09 | 0.77 ± 0.034 | 0.966 ± 0.036 | 0.947 ± 0.019 | 0.902 ± 0.014 | 0.8704 ± 0.0036 | 0.8536 ± 0.0015 | 0.8267 ± 0.0043 | 0.7755 ± 0.00098
1 µM, coculture fibroblast: Hs343T | 0.839 ± 0.21 | 0.888 ± 0.031 | 0.82 ± 0.018 | 0.761 ± 0.047 | 0.722 ± 0.035 | 0.682 ± 0.044 | 0.656 ± 0.043 | 0.637 ± 0.046 | 0.611 ± 0.057
1 µM, coculture fibroblast: WS1 | 0.886 ± 0.038 | 0.814 ± 0.073 | 0.795 ± 0.068 | 0.726 ± 0.066 | 0.677 ± 0.063 | 0.66 ± 0.052 | 0.631 ± 0.056 | 0.607 ± 0.048 | 0.599 ± 0.042
